Results are given in words; binding and its absence hold for the method and conditions named. Binding seen in cells or lysates may run through a third protein. Some entries that bind do so weakly or less than the wild type. Where a sequence is shown, tags or fusion partners need not be part of it.
Biological target: T1, MEG-1::GFP (C. elegans) (UniProt Q21126)
T1 sequence: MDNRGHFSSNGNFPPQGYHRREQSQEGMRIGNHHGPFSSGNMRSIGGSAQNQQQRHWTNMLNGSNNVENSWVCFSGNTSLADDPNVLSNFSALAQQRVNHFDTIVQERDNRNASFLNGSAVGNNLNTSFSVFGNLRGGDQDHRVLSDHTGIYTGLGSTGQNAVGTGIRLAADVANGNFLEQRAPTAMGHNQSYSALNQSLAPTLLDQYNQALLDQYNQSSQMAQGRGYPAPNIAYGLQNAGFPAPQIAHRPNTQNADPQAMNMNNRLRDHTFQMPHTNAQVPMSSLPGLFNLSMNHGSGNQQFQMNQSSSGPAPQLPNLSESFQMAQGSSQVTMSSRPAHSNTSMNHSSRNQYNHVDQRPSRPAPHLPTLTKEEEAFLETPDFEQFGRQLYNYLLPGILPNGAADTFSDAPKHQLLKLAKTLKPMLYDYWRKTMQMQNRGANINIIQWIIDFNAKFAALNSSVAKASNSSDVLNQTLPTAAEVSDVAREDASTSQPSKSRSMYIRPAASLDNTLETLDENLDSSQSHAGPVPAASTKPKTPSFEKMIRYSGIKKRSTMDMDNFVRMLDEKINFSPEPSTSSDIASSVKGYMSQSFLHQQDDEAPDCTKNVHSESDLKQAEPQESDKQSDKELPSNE
Test: co-IP; GFP fusions (MEG-1::GFP, MEG-3::GFP) immunoprecipitated from embryo lysates with anti-GFP nanobody magnetic beads (4°C, 90 min; IP buffer 300 mM KCl, 50 mM HEPES pH 7.4, 0.1% NP-40); western blot with anti-POS-1 serum, anti-α-Tubulin and anti-GFP

Sequences of proteins named here, by UniProt entry; tags and fusion partners are left off.
UniProt G5EF15: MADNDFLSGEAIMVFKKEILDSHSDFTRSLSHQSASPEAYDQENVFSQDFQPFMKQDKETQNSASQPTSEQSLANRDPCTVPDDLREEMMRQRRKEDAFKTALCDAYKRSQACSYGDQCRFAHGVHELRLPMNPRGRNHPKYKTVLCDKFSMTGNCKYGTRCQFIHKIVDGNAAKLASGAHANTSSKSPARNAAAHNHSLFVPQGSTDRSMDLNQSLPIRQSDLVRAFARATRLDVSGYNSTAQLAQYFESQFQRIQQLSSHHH

POS-1 (from UniProt G5EF15 1-264)
binding: binds

— paper PMC9686995
